Results are given in words; binding and its absence hold for the method and conditions named. Some entries that bind do so weakly or less than the wild type. Tags and fused reporters may be left off the sequences shown.

This test has as its target FLAG-Kirrel3 on CHO cells (UniProt Q8BR86). Briefly: cell aggregation assay; CHO cells co-transfected with FLAG-Kirrel3 and GFP, detached with 0.01% trypsin in HMF buffer (1 mM CaCl2, pH 7.4), 100,000 cells a well, nutator 90 min at 37°C, fixed and imaged; aggregation index from GFP fluorescence.

B1: FLAG-Kirrel3 on CHO cells (protein, UniProt Q8BR86 22-778)
chain: LQKRGCCLVLGYMAKDKFRRMNEGQVYSFSQQPQDQVVVSGQPVTLLCAIPEYDGFVLWIKDGLALGVGRDLSSYPQYLVVGNHLSGEHHLKILRAELQDDAVYECQAIQAAIRSRPARLTVLVPPDDPIILGGPVISLRAGDPLNLTCHADNAKPAASIIWLRKGEVINGATYSKTLLRDGKRESIVSTLFISPGDVENGQSIVCRATNKAIPGGKETSVTIDIQHPPLVNLSVEPQPVLEDNIVTFHCSAKANPAVTQYRWAKRGHIIKEASGELYRTTVDYTYFSEPVSCEVTNALGSTNLSRTVDVYFGPRMTSEPQSLLVDLGSDAVFSCAWIGNPSLTIVWMKRGSGVVLSNEKTLTLKSVRQEDAGKYVCRAVVPRVGAGEREVTLTVNGPPIISSTQTQHALHGEKGQIKCFIRSTPPPDRIAWSWKENVLESGTSGRYTVETVNTEEGVISTLTISNIVRADFQTIYNCTAWNSFGSDTEIIRLKEQGSEMKSGAGLEAESVPMAVIIGVAVGAGVAFLVLMATIVAFCCARSQRNLKGVVSAKNDIRVEIVHKEPSSGREAEDHTTIKQLMMDRGEFQQDSVLKQLEVLKEEEKEFQNLKDPTNGYYSVNTFKEHHSTPTISLSSCQPDLRPTGKQRVPTGMSFTNIYSTLSGQGRLYDYGQRFVLGMGSSSIELCEREFQRGSLSDSSSFLDTQCDSSVSSSGKQDGYVQFDKASKASASSSHHSQSSSQNSDPSRPLQRRMQTHV
Regarding B1, the binding entry is “binds”.

For the origin of these results see paper PMC4642954.
